Experimental data as given in paper PMC5325399.
Results are given in words; binding and its absence hold for the method and conditions named. In cells and extracts the contact can be indirect. Some entries that bind do so weakly or less than the wild type.

Sequences of proteins named here, by UniProt entry; tags and fusion partners are left off.
UniProt Q02248: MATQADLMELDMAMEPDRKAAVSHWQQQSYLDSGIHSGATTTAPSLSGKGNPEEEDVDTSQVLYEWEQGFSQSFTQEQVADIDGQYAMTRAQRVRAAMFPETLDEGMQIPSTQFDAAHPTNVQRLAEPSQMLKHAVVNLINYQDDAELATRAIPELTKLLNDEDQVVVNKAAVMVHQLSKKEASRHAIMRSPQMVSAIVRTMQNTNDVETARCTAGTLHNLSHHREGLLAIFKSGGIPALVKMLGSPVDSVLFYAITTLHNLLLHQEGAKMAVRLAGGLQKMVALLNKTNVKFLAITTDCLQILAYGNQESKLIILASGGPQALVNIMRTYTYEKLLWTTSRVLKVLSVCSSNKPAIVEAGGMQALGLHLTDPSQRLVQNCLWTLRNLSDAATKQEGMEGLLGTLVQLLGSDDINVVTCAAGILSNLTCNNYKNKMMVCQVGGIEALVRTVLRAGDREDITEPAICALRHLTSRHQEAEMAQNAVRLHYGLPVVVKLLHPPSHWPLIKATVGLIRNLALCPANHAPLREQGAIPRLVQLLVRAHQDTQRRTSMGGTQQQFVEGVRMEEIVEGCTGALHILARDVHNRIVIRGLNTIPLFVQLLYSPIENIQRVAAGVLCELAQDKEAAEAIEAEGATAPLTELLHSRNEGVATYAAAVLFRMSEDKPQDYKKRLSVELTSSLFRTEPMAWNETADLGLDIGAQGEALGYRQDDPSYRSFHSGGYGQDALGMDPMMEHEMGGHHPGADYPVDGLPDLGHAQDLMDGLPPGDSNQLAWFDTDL

Molecular target: T1, carcinoembryonic antigen-related cell adhesion molecule 1 (CEACAM1) (mouse (endogenous in G-2 cells)) (UniProt P31809)
T1 sequence: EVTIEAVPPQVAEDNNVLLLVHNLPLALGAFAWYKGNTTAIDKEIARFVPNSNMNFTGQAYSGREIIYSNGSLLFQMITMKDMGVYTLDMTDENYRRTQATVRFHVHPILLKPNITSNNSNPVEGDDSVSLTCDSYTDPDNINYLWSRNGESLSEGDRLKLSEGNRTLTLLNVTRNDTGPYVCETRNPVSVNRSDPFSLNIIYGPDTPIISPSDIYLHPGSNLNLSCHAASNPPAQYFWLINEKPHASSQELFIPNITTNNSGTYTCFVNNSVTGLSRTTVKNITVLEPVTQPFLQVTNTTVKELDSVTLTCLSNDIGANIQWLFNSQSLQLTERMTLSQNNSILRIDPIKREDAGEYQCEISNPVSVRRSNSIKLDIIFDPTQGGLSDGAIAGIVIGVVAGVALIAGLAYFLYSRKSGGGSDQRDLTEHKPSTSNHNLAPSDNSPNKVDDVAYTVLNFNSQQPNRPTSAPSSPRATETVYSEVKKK
Test: co-IP; 200 μg G-2 cell lysate in CHAPS buffer (100 mM Tris-HCl pH 7.4, 50 mM NaCl, 1 mM EDTA, 1% NP40, 0,1% CHAPS); anti-mouse CEACAM1 antibody CC1 or anti-E-cadherin antibodies on protein G sepharose, overnight at 4°C; immunoblot with anti-β-catenin and anti-CEACAM1

β-catenin (from UniProt Q02248 1-781)
binding: binds
